{
  "sequences": {"note": "Sequences of proteins named here, by UniProt entry; tags and fusion partners are left off. A change or cut given only in a name is not applied to a line headed by its entry.", "UniProt Q8NBZ0, whole entry, looked up": "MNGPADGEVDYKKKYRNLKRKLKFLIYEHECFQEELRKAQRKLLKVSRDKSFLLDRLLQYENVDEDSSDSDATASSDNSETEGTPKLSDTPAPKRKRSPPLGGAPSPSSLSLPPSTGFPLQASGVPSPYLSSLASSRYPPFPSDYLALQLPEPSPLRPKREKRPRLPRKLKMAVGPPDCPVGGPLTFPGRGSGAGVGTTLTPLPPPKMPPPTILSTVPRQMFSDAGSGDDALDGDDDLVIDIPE", "UniProt Q9H2S9": "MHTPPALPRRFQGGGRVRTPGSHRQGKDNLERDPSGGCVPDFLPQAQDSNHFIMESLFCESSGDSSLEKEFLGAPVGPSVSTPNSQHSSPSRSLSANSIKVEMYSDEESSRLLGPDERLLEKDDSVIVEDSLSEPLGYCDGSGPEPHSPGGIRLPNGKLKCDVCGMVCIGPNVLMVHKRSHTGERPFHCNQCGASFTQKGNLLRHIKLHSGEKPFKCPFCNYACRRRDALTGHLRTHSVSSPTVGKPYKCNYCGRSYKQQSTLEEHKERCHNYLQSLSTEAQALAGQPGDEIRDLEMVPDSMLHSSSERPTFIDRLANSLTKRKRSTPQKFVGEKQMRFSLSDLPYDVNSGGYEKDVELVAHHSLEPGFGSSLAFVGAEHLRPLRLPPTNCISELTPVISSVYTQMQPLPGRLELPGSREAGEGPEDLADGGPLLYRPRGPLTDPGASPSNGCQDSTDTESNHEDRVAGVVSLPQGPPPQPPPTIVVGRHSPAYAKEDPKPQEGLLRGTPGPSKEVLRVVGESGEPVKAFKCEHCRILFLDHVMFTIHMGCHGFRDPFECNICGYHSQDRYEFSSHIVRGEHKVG", "UniProt A2RU49": "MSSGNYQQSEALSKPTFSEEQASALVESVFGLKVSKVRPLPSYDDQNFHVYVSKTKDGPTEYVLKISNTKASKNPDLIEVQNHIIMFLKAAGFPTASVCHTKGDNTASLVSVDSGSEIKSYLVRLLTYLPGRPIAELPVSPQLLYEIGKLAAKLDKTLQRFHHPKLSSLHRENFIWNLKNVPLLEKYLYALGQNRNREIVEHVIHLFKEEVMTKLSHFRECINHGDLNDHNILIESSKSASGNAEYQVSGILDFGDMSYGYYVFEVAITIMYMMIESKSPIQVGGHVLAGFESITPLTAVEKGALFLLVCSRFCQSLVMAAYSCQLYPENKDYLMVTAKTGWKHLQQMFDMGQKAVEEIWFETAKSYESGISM", "UniProt Q9ULG1, whole entry, looked up": "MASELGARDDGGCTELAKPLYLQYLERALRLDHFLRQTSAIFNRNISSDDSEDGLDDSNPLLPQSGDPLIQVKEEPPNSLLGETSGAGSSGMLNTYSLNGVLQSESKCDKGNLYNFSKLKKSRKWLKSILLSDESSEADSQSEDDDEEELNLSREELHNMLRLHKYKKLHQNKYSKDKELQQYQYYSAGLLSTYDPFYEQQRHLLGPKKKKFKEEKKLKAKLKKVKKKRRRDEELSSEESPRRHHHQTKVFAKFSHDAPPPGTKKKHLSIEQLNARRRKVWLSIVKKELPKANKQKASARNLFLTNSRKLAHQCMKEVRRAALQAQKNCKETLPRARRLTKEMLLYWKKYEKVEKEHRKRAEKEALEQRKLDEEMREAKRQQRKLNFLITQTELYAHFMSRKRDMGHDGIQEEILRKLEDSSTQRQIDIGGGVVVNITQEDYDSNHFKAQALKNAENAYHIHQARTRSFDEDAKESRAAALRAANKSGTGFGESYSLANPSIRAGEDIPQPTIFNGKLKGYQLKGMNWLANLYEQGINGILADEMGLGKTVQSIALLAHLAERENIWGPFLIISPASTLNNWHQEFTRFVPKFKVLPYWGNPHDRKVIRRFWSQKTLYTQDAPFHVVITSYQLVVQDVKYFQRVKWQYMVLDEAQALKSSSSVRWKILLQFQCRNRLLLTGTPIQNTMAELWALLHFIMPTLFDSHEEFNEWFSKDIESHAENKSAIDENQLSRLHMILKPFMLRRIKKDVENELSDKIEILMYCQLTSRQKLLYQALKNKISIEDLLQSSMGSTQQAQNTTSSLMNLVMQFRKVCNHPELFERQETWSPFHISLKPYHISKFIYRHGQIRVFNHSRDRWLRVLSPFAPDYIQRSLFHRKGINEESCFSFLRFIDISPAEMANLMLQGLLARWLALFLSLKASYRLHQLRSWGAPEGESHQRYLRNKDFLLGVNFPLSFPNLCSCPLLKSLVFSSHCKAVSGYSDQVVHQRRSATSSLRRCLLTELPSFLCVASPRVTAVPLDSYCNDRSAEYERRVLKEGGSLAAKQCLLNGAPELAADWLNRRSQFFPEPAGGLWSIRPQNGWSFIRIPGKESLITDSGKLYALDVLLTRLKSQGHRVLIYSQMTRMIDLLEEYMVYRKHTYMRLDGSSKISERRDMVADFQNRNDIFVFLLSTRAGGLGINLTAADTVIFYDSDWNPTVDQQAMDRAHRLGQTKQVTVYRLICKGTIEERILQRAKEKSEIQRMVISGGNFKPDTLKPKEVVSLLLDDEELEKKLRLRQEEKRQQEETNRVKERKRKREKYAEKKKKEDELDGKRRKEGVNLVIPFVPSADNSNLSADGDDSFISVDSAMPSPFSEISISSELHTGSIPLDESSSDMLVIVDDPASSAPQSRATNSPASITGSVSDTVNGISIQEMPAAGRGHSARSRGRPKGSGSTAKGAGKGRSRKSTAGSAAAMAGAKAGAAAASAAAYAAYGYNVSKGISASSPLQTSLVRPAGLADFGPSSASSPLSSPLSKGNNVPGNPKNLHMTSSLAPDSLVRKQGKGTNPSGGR", "UniProt Q8WYA0": "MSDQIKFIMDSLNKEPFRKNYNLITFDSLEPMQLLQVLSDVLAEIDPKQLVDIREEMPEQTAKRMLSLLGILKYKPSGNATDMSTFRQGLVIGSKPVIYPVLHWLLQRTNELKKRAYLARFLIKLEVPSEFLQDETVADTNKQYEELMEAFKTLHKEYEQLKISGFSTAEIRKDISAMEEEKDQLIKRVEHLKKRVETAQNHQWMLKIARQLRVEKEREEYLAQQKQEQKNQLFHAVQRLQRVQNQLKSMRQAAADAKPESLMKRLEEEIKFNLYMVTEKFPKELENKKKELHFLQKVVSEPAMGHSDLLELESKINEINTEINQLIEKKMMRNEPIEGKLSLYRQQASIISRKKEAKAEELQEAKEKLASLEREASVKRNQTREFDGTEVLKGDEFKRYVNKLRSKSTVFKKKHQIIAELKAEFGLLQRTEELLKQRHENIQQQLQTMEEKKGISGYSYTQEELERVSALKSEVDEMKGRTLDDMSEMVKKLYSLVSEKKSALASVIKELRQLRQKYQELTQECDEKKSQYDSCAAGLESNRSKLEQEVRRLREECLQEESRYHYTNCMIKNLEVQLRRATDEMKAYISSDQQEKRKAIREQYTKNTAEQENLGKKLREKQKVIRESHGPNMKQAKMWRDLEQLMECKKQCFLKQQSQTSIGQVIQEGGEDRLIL", "UniProt P58166": "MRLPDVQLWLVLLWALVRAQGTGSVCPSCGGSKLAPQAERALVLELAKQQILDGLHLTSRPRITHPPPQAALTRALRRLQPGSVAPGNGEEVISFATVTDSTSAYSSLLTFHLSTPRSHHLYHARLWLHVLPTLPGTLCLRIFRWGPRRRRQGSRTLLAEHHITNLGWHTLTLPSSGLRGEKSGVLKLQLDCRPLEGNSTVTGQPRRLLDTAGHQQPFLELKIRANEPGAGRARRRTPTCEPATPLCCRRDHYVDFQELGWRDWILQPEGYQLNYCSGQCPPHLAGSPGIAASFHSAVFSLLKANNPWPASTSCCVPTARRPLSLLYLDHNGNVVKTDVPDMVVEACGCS", "UniProt Q96F46, whole entry, looked up": "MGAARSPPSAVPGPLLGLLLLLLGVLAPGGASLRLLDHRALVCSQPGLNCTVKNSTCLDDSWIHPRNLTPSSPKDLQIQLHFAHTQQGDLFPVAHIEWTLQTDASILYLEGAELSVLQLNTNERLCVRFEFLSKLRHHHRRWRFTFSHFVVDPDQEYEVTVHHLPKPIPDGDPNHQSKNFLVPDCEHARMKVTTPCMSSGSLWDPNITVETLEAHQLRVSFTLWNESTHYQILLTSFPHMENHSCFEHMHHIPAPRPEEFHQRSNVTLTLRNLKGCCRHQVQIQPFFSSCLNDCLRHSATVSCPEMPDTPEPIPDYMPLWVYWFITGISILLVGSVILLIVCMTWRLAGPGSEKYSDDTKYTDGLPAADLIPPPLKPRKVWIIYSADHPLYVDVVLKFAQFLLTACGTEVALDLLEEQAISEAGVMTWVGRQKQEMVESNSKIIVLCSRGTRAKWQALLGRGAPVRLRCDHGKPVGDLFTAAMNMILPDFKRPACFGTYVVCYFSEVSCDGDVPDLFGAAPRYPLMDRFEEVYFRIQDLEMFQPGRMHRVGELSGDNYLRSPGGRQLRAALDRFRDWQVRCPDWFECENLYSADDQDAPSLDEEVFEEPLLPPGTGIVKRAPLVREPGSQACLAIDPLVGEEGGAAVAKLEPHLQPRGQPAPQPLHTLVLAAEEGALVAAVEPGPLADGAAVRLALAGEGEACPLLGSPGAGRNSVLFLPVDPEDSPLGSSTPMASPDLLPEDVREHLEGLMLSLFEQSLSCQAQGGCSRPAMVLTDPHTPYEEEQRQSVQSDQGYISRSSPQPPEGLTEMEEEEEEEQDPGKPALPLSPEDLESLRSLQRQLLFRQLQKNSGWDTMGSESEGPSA", "UniProt P22692": "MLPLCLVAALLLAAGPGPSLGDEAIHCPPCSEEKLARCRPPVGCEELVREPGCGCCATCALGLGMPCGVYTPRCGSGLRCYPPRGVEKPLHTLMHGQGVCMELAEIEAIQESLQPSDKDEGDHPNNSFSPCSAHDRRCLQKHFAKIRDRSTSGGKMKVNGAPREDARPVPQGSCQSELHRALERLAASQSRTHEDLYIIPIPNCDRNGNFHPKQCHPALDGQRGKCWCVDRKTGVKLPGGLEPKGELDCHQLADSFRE", "UniProt Q96LU5": "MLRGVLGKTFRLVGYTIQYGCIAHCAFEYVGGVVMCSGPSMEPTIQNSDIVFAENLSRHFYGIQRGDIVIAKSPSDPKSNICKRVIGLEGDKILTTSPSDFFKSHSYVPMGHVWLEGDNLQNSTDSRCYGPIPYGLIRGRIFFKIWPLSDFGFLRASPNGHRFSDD", "UniProt P78552": "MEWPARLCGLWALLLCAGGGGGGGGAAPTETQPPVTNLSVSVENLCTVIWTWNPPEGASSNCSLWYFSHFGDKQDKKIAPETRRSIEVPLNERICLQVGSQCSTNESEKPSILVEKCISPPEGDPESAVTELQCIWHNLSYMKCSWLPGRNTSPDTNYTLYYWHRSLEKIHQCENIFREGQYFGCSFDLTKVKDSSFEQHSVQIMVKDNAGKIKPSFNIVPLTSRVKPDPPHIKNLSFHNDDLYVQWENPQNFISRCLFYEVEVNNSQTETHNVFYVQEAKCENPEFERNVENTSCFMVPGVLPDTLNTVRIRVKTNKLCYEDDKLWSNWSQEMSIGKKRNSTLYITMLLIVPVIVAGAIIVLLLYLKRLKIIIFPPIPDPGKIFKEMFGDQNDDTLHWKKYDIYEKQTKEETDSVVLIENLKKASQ", "UniProt P35475": "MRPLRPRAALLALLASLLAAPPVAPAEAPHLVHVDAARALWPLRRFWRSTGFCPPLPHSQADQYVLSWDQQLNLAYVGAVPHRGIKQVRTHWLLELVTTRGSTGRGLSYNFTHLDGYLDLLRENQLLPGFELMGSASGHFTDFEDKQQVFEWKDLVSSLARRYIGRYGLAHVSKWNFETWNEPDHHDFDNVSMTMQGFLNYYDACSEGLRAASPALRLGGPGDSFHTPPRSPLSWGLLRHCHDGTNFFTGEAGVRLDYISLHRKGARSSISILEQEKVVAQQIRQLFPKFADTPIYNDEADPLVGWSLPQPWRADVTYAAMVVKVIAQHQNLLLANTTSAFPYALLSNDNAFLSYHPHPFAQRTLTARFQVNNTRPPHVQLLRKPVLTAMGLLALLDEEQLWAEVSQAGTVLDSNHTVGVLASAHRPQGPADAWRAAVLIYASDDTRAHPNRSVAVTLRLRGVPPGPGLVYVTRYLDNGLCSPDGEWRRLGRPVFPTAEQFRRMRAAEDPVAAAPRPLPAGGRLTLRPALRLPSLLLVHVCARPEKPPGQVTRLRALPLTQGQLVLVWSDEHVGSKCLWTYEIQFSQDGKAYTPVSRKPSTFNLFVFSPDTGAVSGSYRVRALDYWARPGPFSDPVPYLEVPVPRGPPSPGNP", "UniProt P0DMQ5": "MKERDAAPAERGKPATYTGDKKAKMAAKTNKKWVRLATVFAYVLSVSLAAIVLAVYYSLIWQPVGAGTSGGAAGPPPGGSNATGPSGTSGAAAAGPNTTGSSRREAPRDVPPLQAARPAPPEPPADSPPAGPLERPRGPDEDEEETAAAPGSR"},
  "source": "the supplement of paper PMC10849652",
  "assay_in_all_cases": "log2 fold change, soluble protein after heating vs DMSO (PISA); higher = thermal stabilisation; K562 lysate, 10 uM; active = over 0.2 and 3.5 SD of the protein, either way, in both replicates (recomputed)",
  "key": {"vorinostat": {"compound": "O=C(CCCCCCC(=O)Nc1ccccc1)NO [vorinostat]", "how_it_was_run": "(§1)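 To prepare the extract, K562 pellets were dounce-homogenised in PBS pH 7.4 with 1 mM MgCl2, giving crude material at 1 mg/mL protein. This was treated with 10 μM compound for 30 min, then heated in aliquots for 3 min over 48°C-58°C before pooling and addition of NP-40 to 0.5% at 4°C. Centrifugation at 21,000xg for 90 min left soluble protein in the supernatant, which TMTpro 16plex LC-MS/MS quantified with equalised channel sums. Results are log-two fold changes in thermal stability compared with solvent controls, from duplicates.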"}, "silmitasertib": {"compound": "O=C(O)c1ccc2c(c1)nc(Nc1cccc(Cl)c1)c1ccncc12 [silmitasertib]", "how_it_was_run": "as §1"}, "[1]": {"compound": "O=C1NC(=O)C(c2cnc3ccccn23)=C1c1cn2c3c(cc(F)cc13)CN(C(=O)N1CCCCC1)CC2", "how_it_was_run": "as §1"}, "entospletinib": {"compound": "c1cn2cc(-c3ccc4cn[nH]c4c3)nc(Nc3ccc(N4CCOCC4)cc3)c2n1 [entospletinib]", "how_it_was_run": "as §1"}},
  "note": "Some of the results follow.",
  "data": [
    {"target": "ING1 (UniProt Q9UK53)", "values": [
      {"measurement": "log2 fold change", "setting": "vorinostat", "value": "inactive: 0.144"},
      {"measurement": "log2 fold change", "setting": "silmitasertib", "value": "inactive: -0.081"},
      {"measurement": "log2 fold change", "setting": "[1]", "value": "inactive: 0.073"}
    ]},
    {"target": "INO80E (UniProt Q8NBZ0)", "values": [
      {"measurement": "log2 fold change", "setting": "vorinostat", "value": "inactive: 0.017"},
      {"measurement": "log2 fold change", "setting": "silmitasertib", "value": "inactive: -0.098"},
      {"measurement": "log2 fold change", "setting": "[1]", "value": "inactive: 0.091"},
      {"measurement": "log2 fold change", "setting": "entospletinib", "value": "inactive: -0.17"}
    ]},
    {"target": "IKZF4 (UniProt Q9H2S9)", "values": [
      {"measurement": "log2 fold change", "setting": "[1]", "value": "inactive: -0.032"},
      {"measurement": "log2 fold change", "setting": "entospletinib", "value": "inactive: -0.095"}
    ]},
    {"target": "HSPH1 isoform 2 (UniProt Q92598)", "values": [
      {"measurement": "log2 fold change", "setting": "entospletinib", "value": "inactive: 0.047"}
    ]},
    {"target": "HYKK (UniProt A2RU49)", "values": [
      {"measurement": "log2 fold change", "setting": "vorinostat", "value": "inactive: -0.235"},
      {"measurement": "log2 fold change", "setting": "silmitasertib", "value": "inactive: 0.158"},
      {"measurement": "log2 fold change", "setting": "[1]", "value": "inactive: -0.023"},
      {"measurement": "log2 fold change", "setting": "entospletinib", "value": "inactive: -0.09"}
    ]},
    {"target": "INO80 (UniProt Q9ULG1)", "values": [
      {"measurement": "log2 fold change", "setting": "[1]", "value": "inactive: 0.035"}
    ]},
    {"target": "IFT81 (UniProt Q8WYA0)", "values": [
      {"measurement": "log2 fold change", "setting": "[1]", "value": "inactive: 0.067"}
    ]},
    {"target": "INHBE (UniProt P58166)", "values": [
      {"measurement": "log2 fold change", "setting": "vorinostat", "value": "inactive: -0.053"},
      {"measurement": "log2 fold change", "setting": "silmitasertib", "value": "inactive: 0.009"},
      {"measurement": "log2 fold change", "setting": "[1]", "value": "inactive: -0.284"}
    ]},
    {"target": "IL17RA (UniProt Q96F46)", "values": [
      {"measurement": "log2 fold change", "setting": "[1]", "value": "inactive: 0.083"},
      {"measurement": "log2 fold change", "setting": "entospletinib", "value": "inactive: 0.079"}
    ]},
    {"target": "IGFBP4 (UniProt P22692)", "values": [
      {"measurement": "log2 fold change", "setting": "vorinostat", "value": "inactive: 0.049"},
      {"measurement": "log2 fold change", "setting": "silmitasertib", "value": "inactive: -0.026"},
      {"measurement": "log2 fold change", "setting": "[1]", "value": "inactive: 0.023"}
    ]},
    {"target": "IGKC (UniProt P01834)", "values": [
      {"measurement": "log2 fold change", "setting": "vorinostat", "value": "inactive: 0.119"},
      {"measurement": "log2 fold change", "setting": "silmitasertib", "value": "inactive: 0.008"},
      {"measurement": "log2 fold change", "setting": "entospletinib", "value": "inactive: -0.303"}
    ]},
    {"target": "IMMP1L (UniProt Q96LU5)", "values": [
      {"measurement": "log2 fold change", "setting": "vorinostat", "value": "inactive: 0.067"},
      {"measurement": "log2 fold change", "setting": "silmitasertib", "value": "inactive: 0.039"},
      {"measurement": "log2 fold change", "setting": "[1]", "value": "inactive: 0.022"},
      {"measurement": "log2 fold change", "setting": "entospletinib", "value": "inactive: 0.001"}
    ]},
    {"target": "IL13RA1 (UniProt P78552)", "values": [
      {"measurement": "log2 fold change", "setting": "[1]", "value": "inactive: 0.056"}
    ]},
    {"target": "IDUA (UniProt P35475)", "values": [
      {"measurement": "log2 fold change", "setting": "[1]", "value": "inactive: 0.057"}
    ]},
    {"target": "ILF3 (UniProt K7EKJ9)", "values": [
      {"measurement": "log2 fold change", "setting": "[1]", "value": "inactive: -0.036"}
    ]},
    {"target": "INAFM2 (UniProt P0DMQ5)", "values": [
      {"measurement": "log2 fold change", "setting": "[1]", "value": "inactive: -0.03"}
    ]}
  ]
}
